Values of other authors as cited in patent publication US20040259815A1, “Anti-proliferative composition” (priority 2001, published 2004).
pIC50: −log10 of the molar value. Some results were stated once for a whole list of compounds, not compound by compound.

Tested on: prostate cancer cells
Conditions: literature report, Zhou et al.; read-out: IC50 for inhibition of the growth of prostate cancer cells; cited from earlier work

SMILES | pIC50
O=c1c(-c2ccc(O)cc2)coc2cc(O)cc(O)c12 [Genistein, genistein] | < 4.30
O=c1c(-c2ccc(O)cc2)coc2cc(O)ccc12 [daidzein] | < 4.30
